{"source": "PubChem BioAssay AID2685", "about": "(National Center for Advancing Translational Sciences (NCATS), 2010)", "assay": "qHTS Assay for Lipid Storage Modulators in Drosophila S3 Cells;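 on cell number change: cells counted by Cell Tracker Red CMTPX staining in the red channel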", "conditions": "BODIPY lipid droplet fluorescence, 18-24 h; for cell number change: measured here: cell count max response, cells fed with added oleic acid", "outline": "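Drosophila S3 cells loaded with oleic acid (400 uM, as added) and compounds at several concentrations; lipid droplets imaged by 488-nm laser-scanning cytometry, 500–530 nm intensity and object ratio to cell channel. Percent activity normalized to 20 uM Triacsin C.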", "key": {"[1]": {"conditions": "measured here: lipid fluorescence (Fed channel) AC50, cells fed with added oleic acid"}, "[2]": {"conditions": "measured here: cell number channel AC50, cells fed with added oleic acid"}}, "note": "The list shows a part of the results. The main result of the screen is listed elsewhere. These columns were measured beside it and carry no call. Most of these compounds were active or inconclusive in the main read-out, so they are no random draw. Potencies come from curve fits of mixed quality, noted in brackets."}
{"smiles": "N#CC(C#N)=C1NC2(CCCCC2)Cc2ccccc21", "values": [{"measurement": "cell number change", "result": 11.5, "unit": "%"}, {"measurement": "AC50", "setting": "[1]", "result": "0.58 µM [rising, full curve]"}]}
{"smiles": "Cc1sc2nc(CSc3ccccc3)nc(N3CCOCC3)c2c1C", "values": [{"measurement": "cell number change", "result": 12.3, "unit": "%"}, {"measurement": "AC50", "setting": "[1]", "result": "9.2 µM [rising, partial curve]"}]}
{"smiles": "CCOc1cc(/C=N/NC(=O)Cn2nc([N+](=O)[O-])cc2C)cc(Br)c1OCc1ccccc1C", "values": [{"measurement": "cell number change", "result": -2.83, "unit": "%"}, {"measurement": "AC50", "setting": "[1]", "result": "0.13 µM [rising, full curve, poor fit]"}]}
{"smiles": "O=C(CN1N=C(c2ccc(Cl)cc2)CCC1=O)NCCN1CCc2ccccc2C1", "values": [{"measurement": "cell number change", "result": -20.3, "unit": "%"}, {"measurement": "AC50", "setting": "[1]", "result": "32.6 µM [falling, single point]"}]}
{"smiles": "Cc1ccc(N(O)C(=O)OCCNC(=O)Nc2ccccc2)cc1", "values": [{"measurement": "cell number change", "result": -32, "unit": "%"}, {"measurement": "AC50", "setting": "[2]", "result": "0.461 µM [falling, full curve, poor fit]"}, {"measurement": "AC50", "setting": "[1]", "result": "0.116 µM [falling, single point]"}]}
{"smiles": "COCCn1c(SCC(=O)c2cc(C)n(C)c2C)nc2ccccc2c1=O", "values": [{"measurement": "AC50", "setting": "[2]", "result": "0.58 µM [rising, single point]"}, {"measurement": "AC50", "setting": "[1]", "result": "1.3 µM [rising, single point]"}]}
{"smiles": "COc1ccc(C(=O)NCCNC(=O)c2cnccn2)cc1OC", "values": [{"measurement": "cell number change", "result": 10.3, "unit": "%"}, {"measurement": "AC50", "setting": "[1]", "result": "6.51 µM [falling, partial curve]"}]}
{"smiles": "CCOC(=O)c1sc(NC(=S)NC(=O)c2ccccc2)c(C(=O)OCC)c1C", "values": [{"measurement": "cell number change", "result": 6.19, "unit": "%"}, {"measurement": "AC50", "setting": "[1]", "result": "0.731 µM [rising, full curve, poor fit]"}]}
{"smiles": "COc1c2ccc(C(=O)NCc3cc(C(F)(F)F)cc(C(F)(F)F)c3)cc2nn1C", "values": [{"measurement": "cell number change", "result": 31.5, "unit": "%"}, {"measurement": "AC50", "setting": "[2]", "result": "11.6 µM [rising, partial curve]"}, {"measurement": "AC50", "setting": "[1]", "result": "11.6 µM [rising, partial curve]"}]}
{"smiles": "O=C(c1ccccc1)N1N=C(c2ccccc2)CC1c1ccccc1[N+](=O)[O-]", "note": "(stereo unspecified)", "values": [{"measurement": "cell number change", "result": 45.5, "unit": "%"}, {"measurement": "AC50", "setting": "[2]", "result": "29.1 µM [rising, partial curve, poor fit]"}, {"measurement": "AC50", "setting": "[1]", "result": "23.1 µM [rising, single point]"}]}
{"smiles": "COc1ccc(N2C(=NC(=O)CCC3CCCC3)SC3CS(=O)(=O)CC32)cc1", "note": "(stereo unspecified)", "values": [{"measurement": "cell number change", "result": 18.3, "unit": "%"}]}
{"smiles": "Cc1cc(Br)ccc1SCC(=O)Nc1cccnc1", "values": [{"measurement": "cell number change", "result": 2.47, "unit": "%"}, {"measurement": "AC50", "setting": "[1]", "result": "0.00411 µM [falling, full curve, poor fit]"}]}
{"smiles": "COc1ccccc1CNC(=O)COc1ccc(Br)c(C)c1", "values": [{"measurement": "cell number change", "result": 2.1, "unit": "%"}, {"measurement": "AC50", "setting": "[1]", "result": "7.31 µM [rising, single point]"}]}
{"smiles": "CCCN(C(=O)c1cc(S(=O)(=O)N2CCCCCC2)ccc1OC)C1CCS(=O)(=O)C1", "note": "(stereo unspecified)", "values": [{"measurement": "cell number change", "result": 60, "unit": "%"}, {"measurement": "AC50", "setting": "[2]", "result": "16.4 µM [rising, single point]"}]}
{"smiles": "CN1CCN(C(=O)/C(=C\\c2cccs2)NC(=O)c2ccccc2)CC1", "values": [{"measurement": "cell number change", "result": 34.3, "unit": "%"}, {"measurement": "AC50", "setting": "[1]", "result": "29.1 µM [rising, single point]"}]}
{"smiles": "CC(C)(C)c1ccccc1NC(=O)N1CCNC(=O)C1CC(=O)Nc1ccc(F)cc1", "note": "(stereo unspecified)", "values": [{"measurement": "cell number change", "result": 11.4, "unit": "%"}, {"measurement": "AC50", "setting": "[1]", "result": "16.4 µM [rising, single point]"}]}
{"smiles": "Cc1cc(C)cc(C(=O)OCC(=O)NCC(F)(F)F)c1", "values": [{"measurement": "AC50", "setting": "[1]", "result": "2.91 µM [rising, single point]"}]}
{"smiles": "CC[C@H](C)[C@H](NC(N)=O)C(=O)NCCc1ccc(Cl)cc1Cl", "values": [{"measurement": "cell number change", "result": -44.5, "unit": "%"}, {"measurement": "AC50", "setting": "[2]", "result": "32.6 µM [falling, single point]"}, {"measurement": "AC50", "setting": "[1]", "result": "29.1 µM [falling, partial curve, poor fit]"}]}
{"smiles": "CCc1c(C(=O)Nc2nnc(C3CC3)s2)csc1C", "values": [{"measurement": "cell number change", "result": 6.81, "unit": "%"}, {"measurement": "AC50", "setting": "[1]", "result": "5.8 µM [rising, single point]"}]}
{"smiles": "CCCN1CCN(C(c2cc3cc4c(cc3[nH]c2=O)OCO4)c2nnnn2C(C)(C)C)CC1", "note": "(stereo unspecified)", "values": [{"measurement": "cell number change", "result": -18, "unit": "%"}, {"measurement": "AC50", "setting": "[1]", "result": "29.1 µM [rising, single point]"}]}
{"smiles": "Nc1nnc(-c2ccc(Cl)cc2Cl)s1", "values": [{"measurement": "cell number change", "result": 34, "unit": "%"}, {"measurement": "AC50", "setting": "[2]", "result": "1.46 µM [rising, full curve, poor fit]"}, {"measurement": "AC50", "setting": "[1]", "result": "0.731 µM [rising, single point]"}]}
{"smiles": "CCc1nn2c(=O)c(S(=O)(=O)Nc3cccc(F)c3)c(C)nc2s1", "values": [{"measurement": "cell number change", "result": -2.63, "unit": "%"}]}
{"smiles": "FC(F)(F)c1cccc(Nc2ncnc3ccccc23)c1", "values": [{"measurement": "cell number change", "result": -12.3, "unit": "%"}, {"measurement": "AC50", "setting": "[1]", "result": "5.8 µM [rising, partial curve]"}]}
{"smiles": "COCCC(=O)N1CCC(Oc2ccc(C(=O)NCCn3cccn3)cc2)CC1", "values": [{"measurement": "cell number change", "result": 26.2, "unit": "%"}, {"measurement": "AC50", "setting": "[1]", "result": "29.1 µM [rising, single point]"}]}
{"smiles": "CN(CC(=O)Nc1ccc(Cl)cc1)CC(=O)Nc1cc(Cl)ccc1C#N", "values": [{"measurement": "cell number change", "result": 10.8, "unit": "%"}, {"measurement": "AC50", "setting": "[1]", "result": "10.3 µM [rising, single point]"}]}
{"smiles": "COc1ccc(/C=C2/SC(=S)N(CC(=O)O)C2=O)cc1OCc1ccc(Cl)cc1", "values": [{"measurement": "cell number change", "result": 16.5, "unit": "%"}]}
{"smiles": "Cc1ccccc1/C=C/C(=O)NCC(=O)N1CCC(N(C)C2CCCCC2C)CC1", "note": "(stereo unspecified)", "values": [{"measurement": "AC50", "setting": "[2]", "result": "4.61 µM [falling, single point]"}, {"measurement": "AC50", "setting": "[1]", "result": "5.17 µM [falling, single point]"}]}
{"smiles": "CCOc1ccc(NC(=O)c2ccccc2NS(C)(=O)=O)cc1", "values": [{"measurement": "cell number change", "result": -0.462, "unit": "%"}, {"measurement": "AC50", "setting": "[1]", "result": "5.8 µM [rising, single point]"}]}
{"smiles": "CCOc1ccc(Cl)cc1S(=O)(=O)N1CCC(C(=O)NCc2ccncc2)CC1", "values": [{"measurement": "cell number change", "result": 9.66, "unit": "%"}, {"measurement": "AC50", "setting": "[1]", "result": "0.082 µM [falling, partial curve, poor fit]"}]}
{"smiles": "CC1=CS(=O)(=O)CC1Sc1nc(C)n[nH]1", "note": "(stereo unspecified)", "values": [{"measurement": "cell number change", "result": -24.2, "unit": "%"}, {"measurement": "AC50", "setting": "[1]", "result": "29.1 µM [falling, single point]"}]}
{"smiles": "CN(C)S(=O)(=O)c1cccc(COc2ncnc3c(Cl)cc(Cl)cc23)c1", "values": [{"measurement": "cell number change", "result": -0.403, "unit": "%"}, {"measurement": "AC50", "setting": "[1]", "result": "2.91 µM [falling, partial curve]"}]}
{"smiles": "C=CC(COCc1ccccc1)N(C(=O)OC(C)(C)C)S(=O)(=O)c1ccccc1Br", "note": "(stereo unspecified)", "values": [{"measurement": "cell number change", "result": -0.85, "unit": "%"}, {"measurement": "AC50", "setting": "[1]", "result": "0.58 µM [rising, full curve, poor fit]"}]}
{"smiles": "CC(C)c1nc(N2CCN(C(=O)c3ccccc3)CC2)c(C#N)c2c1COC(C)(C)C2", "values": [{"measurement": "cell number change", "result": -29.4, "unit": "%"}]}
{"smiles": "Cc1nc(Sc2ccccc2)c(C#N)c(C)c1[N+](=O)[O-]", "values": [{"measurement": "cell number change", "result": 25.8, "unit": "%"}, {"measurement": "AC50", "setting": "[1]", "result": "0.92 µM [rising, full curve]"}]}
{"smiles": "O=C(CC1SC(=NC2CCCCC2)NC1=O)Nc1ccccc1", "note": "(stereo unspecified)", "values": [{"measurement": "cell number change", "result": -25.1, "unit": "%"}, {"measurement": "AC50", "setting": "[1]", "result": "25.9 µM [falling, single point]"}]}
{"smiles": "CC(CNC(=O)c1cc(COc2ccc3ncccc3c2)on1)c1ccccc1", "note": "(stereo unspecified)", "values": [{"measurement": "cell number change", "result": -22.4, "unit": "%"}, {"measurement": "AC50", "setting": "[1]", "result": "29.1 µM [falling, single point]"}]}
{"smiles": "Cc1nnc(Nc2ccc(Cl)c(C(F)(F)F)c2)[nH]c1=O", "values": [{"measurement": "AC50", "setting": "[1]", "result": "29.1 µM [rising, single point]"}]}
{"smiles": "O=C(O)CCCC(=O)N1CCC(C(O)(c2ccccc2)c2ccccc2)CC1", "values": [{"measurement": "cell number change", "result": -41.1, "unit": "%"}, {"measurement": "AC50", "setting": "[2]", "result": "29.1 µM [falling, single point]"}, {"measurement": "AC50", "setting": "[1]", "result": "20.6 µM [falling, single point]"}]}
